{"source": "patent US8163805B2", "about": "“Small molecule antagonists of Bcl-2 family proteins” (The Regents of the University of Michigan, priority 2001, dated 2012)", "key": {"[1]": {"system": "Cyt-c release, MDA-231 cells", "assay": "Cytochrome-c release from mitochondria, MDA-231", "format": "cell-based, human", "conditions": "20 μM, 24 hours"}, "[2]": {"system": "caspase-3, DU-145 prostate cancer cells", "assay": "Caspase-3 activation, DU-145", "format": "cell-based, human", "conditions": "5, 10, or 20 μM, 24 hours"}, "MDA-231 cells": {"system": "MDA-231 cells", "assay": "Mitochondrial transmembrane potential (DiOC6), MDA-231", "format": "cell-based, human", "conditions": "10 or 20 μM, 8 hrs"}, "[3]": {"system": "Cyt-c release, T47D cells", "assay": "Cytochrome-c release from mitochondria, T47D", "format": "cell-based, human", "conditions": "20 μM, 24 hours"}, "MDA-MB-231 cells": {"system": "MDA-MB-231 cells", "assay": "Hoechst Dye apoptosis assay, MDA-MB-231", "format": "cell-based, human", "conditions": "20 μM, 24 hours"}, "[4]": {"system": "T-47D breast cancer cells", "assay": "Annexin-V flow cytometry apoptosis, T-47D", "format": "cell-based, human", "conditions": "24 hours"}, "[5]": {"system": "caspase-3, MDA-231 breast cancer cells", "assay": "Caspase-3 cleavage, MDA-231 lysates", "format": "cell-based, human", "conditions": "12 or 24 hours"}, "[6]": {"system": "normal WI-38 fibroblast cells", "assay": "Hoechst Dye apoptosis assay, WI-38", "format": "cell-based, human", "conditions": "20 μM, 24 hours"}, "[7]": {"system": "DU-145 prostate cancer cell line", "assay": "Apoptosis induction, DU-145", "format": "cell-based, human", "conditions": "DU-145, low Bcl-2 and Bcl-XL"}, "[8]": {"system": "HT-29 colon cancer cell line", "assay": "Apoptosis induction, HT-29", "format": "cell-based, human", "conditions": "HT-29, high Bcl-XL"}, "[9]": {"system": "PC-3 human prostate cancer bilateral xenografts", "assay": "PC-3 xenograft, (−)-gossypol alone and with cisplatin (Table 11)", "format": "in vivo, NCr-nu nude mouse", "conditions": "either drug alone: (−)-gossypol 7.5 mg/kg p.o. q day 4 weeks, cisplatin 5 mg/kg i.v. twice q week 2 weeks, not significant"}}, "note": "At least one structure is not confirmed: it was looked up by name or label, or the drawing left a doubt. Some entries share one result that the patent states for a list of compounds."}
{"smiles": "Cc1cc2c(C(C)C)c(O)c(O)c(C=O)c2c(O)c1-c1c(C)cc2c(C(C)C)c(O)c(O)c(C=O)c2c1O", "note": "(racemic) [gossypol]", "values": [{"measurement": "Cyt-c release", "setting": "[1]", "result": "released from mitochondria into the cytosol"}, {"measurement": "caspase-3 activation", "setting": "[2]", "result": "no effect on caspase-3 activation"}, {"measurement": "mitochondrial transmembrane potential", "setting": "MDA-231 cells", "result": "decrease in the mitochondrial transmembrane potential"}, {"measurement": "Cyt-c release", "setting": "[3]", "result": "released from mitochondria into the cytosol"}, {"measurement": "induction of apoptosis", "setting": "MDA-MB-231 cells", "result": "induces apoptosis"}, {"measurement": "induction of apoptosis", "setting": "[4]", "result": "induces dose-dependent apoptosis"}, {"measurement": "caspase-3 cleavage", "setting": "[5]", "result": "cleaved after treatment with gossypol into 17 and 21 kD fragments in a dose dependent manner"}, {"measurement": "induction of apoptosis", "setting": "[6]", "result": "did not induce normal WI-38 fibroblast cells to undergo apoptosis"}, {"measurement": "induction of apoptosis", "setting": "[7]", "result": "but not in cancer cell lines with low levels of Bcl-2 and Bcl-XL expression such as DU-145"}, {"measurement": "induction of apoptosis", "setting": "[8]", "result": "induces apoptosis"}]}
{"smiles": "Cc1cc2c(C(C)C)c(O)c(O)c(C=O)c2c(O)c1-c1c(C)cc2c(C(C)C)c(O)c(O)c(C=O)c2c1O", "note": "[(−)-gossypol]", "values": [{"measurement": "tumor growth inhibition", "setting": "[9]", "result": "achieved only 20-25% tumor growth"}]}
